Measured values taken from PubChem BioAssay (Tox21).
Values joined by “and” are separate entries in the source; they are usually repeats but may differ in a detail not shown here. Equal entries are not always repeated. The inconclusive results got no clear call from the source; some entries with a clear call stand among them for comparison. A potency beside an inconclusive call is a rough fit, not a confirmed value. Active and inactive are the calls of the source. Unless noted, calls come from the whole dose curve; as a rule, active = well fitted curve in the direction sought with a large enough effect in the repeat runs; inconclusive = weak or mixed curves; inactive = no such curve, though single readings can be large; an effect the other way counts as inactive or inconclusive.

Sequences of proteins named here, by UniProt entry; tags and fusion partners are left off. A change or cut given only in a name is not applied to a line headed by its entry.
UniProt P19793: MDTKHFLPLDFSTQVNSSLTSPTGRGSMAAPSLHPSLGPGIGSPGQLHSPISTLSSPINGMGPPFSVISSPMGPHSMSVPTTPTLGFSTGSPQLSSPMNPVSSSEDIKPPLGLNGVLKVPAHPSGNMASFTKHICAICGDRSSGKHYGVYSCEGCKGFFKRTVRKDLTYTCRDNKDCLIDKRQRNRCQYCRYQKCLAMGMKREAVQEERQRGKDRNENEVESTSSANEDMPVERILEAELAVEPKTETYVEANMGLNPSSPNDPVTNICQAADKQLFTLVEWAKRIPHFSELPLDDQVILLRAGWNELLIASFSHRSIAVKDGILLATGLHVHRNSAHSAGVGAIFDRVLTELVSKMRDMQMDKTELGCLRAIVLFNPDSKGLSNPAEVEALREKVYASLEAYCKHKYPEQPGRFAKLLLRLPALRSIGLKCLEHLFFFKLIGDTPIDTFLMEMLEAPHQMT

Key:
[1] = molecular target: Retinoic acid receptor RXR-alpha (Homo sapiens) (UniProt P19793); assay: qHTS assay to identify small molecule agonists of the RXR signaling pathway (AID 1159527; calls by dose curve; note: nearly all actives have a fitted effect of over 35% in size; for activation: % is set by controls: 0 for no effect and ±100 for the full control effect); conditions: HEK293T RXRa-UAS-bla, beta-lactamase ratio, 16 h
In short: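 Cells plated at 2,000/well, rested 5 hr at 37 C, pin-dosed with DMSO compound solutions, incubated 16 hr, then loaded with B/G FRET substrate for 2 hr at RT before dual-emission fluorescence reading.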

[2] = qHTS assay to identify small molecule agonists of the retinoic acid receptor (RAR) signaling pathway (AID 1159553); conditions: C3RL4 RARE luciferase reporter, agonist, 6 h; activation: at 73.3 µM (top of the series) unless noted; for activation: % is set by controls: 0 for no effect and ±100 for the full control effect
In short: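 Quantitative high-throughput format: the Tox21 10K library was tested on C3RL4 RARE-luciferase cells for 6 hr at 37 C and 5% CO2, with luminescence measured after a 30 min room-temperature reagent step.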

[3] = qHTS assay to identify small molecule agonists of the RXR signaling pathway - cell viability counter screen (AID 1159529); note: nearly all actives have a fitted effect of over 50% in size
In short: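 Steps: seed RXR-alpha-UAS-bla HEK 293T cells in assay medium containing 2% charcoal-stripped FBS; incubate 5 hr; add compounds in DMSO; incubate 16 hr at 37 C; after the bla read, add CellTiter-Glo and read luminescence at 30 min.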

[4] = qHTS assay to identify small molecule antagonists of the retinoic acid receptor (RAR) signaling pathway (AID 1159552; note: nearly all actives have a fitted effect of over 50% in size)
In short: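 Retinol at 1 uM final stimulated RARE-luciferase expression in C3RL4 cells exposed to test compounds for 6 hr at 37 C. Reduced luminescence, read 30 min after detection reagent, indicated pathway antagonism.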

[5] = qHTS assay to identify small molecule antagonists of the retinoid acid receptor (RAR) signaling pathway - cell viability counter screen (AID 1159551); note: nearly all actives have a fitted effect of over 35% in size
In short: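 ATP-based viability, C3RL4 cells, 6 h at 37 C with 1 uM final retinol co-added after compound; luminescence read 30 min post CellTiter-Glo, RT.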

[6] = activation: at 76.8 µM (top of the series) unless noted
Potency is the fitted concentration of half-maximal effect.

For `c1ccc2cc(Nc3ccc(Nc4ccc5ccccc5c4)cc3)ccc2c1`, the activation [1, 6] was inconclusive: 18.8%, the activation ([1]; at 76.8 µM (top of the series)) was inactive: -8.61% and the Potency [2] was “inactive and inconclusive: 68.6 µM [inhibitor]”.

With `CN(C)c1ccc(C(c2ccccc2)c2ccc(N(C)C)cc2)cc1` the Potency [1, 6] was inconclusive: 5.49 µM [inhibitor, full curve] and the Potency [3] was inconclusive: 4.9 µM [cytotoxic, partial curve, poor fit].

With `CC1(C)O[C@@H]2C[C@H]3[C@@H]4CCC5=CC(=O)CC[C@]5(C)[C@@]4(F)[C@@H](O)C[C@]3(C)[C@]2(C(=O)CCl)O1` the Potency [1, 6] was inconclusive: 23.9 µM [rising, partial curve, poor fit], the Potency [3] was inconclusive: 21.3 µM [cytotoxic, partial curve] and the Potency [4] was inconclusive: 2.66 µM [inhibitor, partial curve, poor fit].

In the case of `N#CSc1ccc(N)c([N+](=O)[O-])c1`, the Potency [1, 6] is reported as inconclusive: 1.96 µM, the Potency [3] is reported as inconclusive: 55.3 µM [cytotoxic] and the Potency [5] is reported as inconclusive: 61.5 µM [cytotoxic, partial curve, poor fit]. For the same compound, the Potency [4] was active: 17.3 µM and the Potency [2] was inconclusive: 30.8 µM [inhibitor, partial curve].

With `CCc1ccc(O)c(C(C)(C)C)c1` the Potency [1, 6] was “inactive”, the Potency [3] was inconclusive: 43.6 µM [cytotoxic, partial curve] and the Potency [5] was inconclusive: 61.1 µM [cytotoxic, partial curve].

In the case of `C=CC(=O)OCC(CO)(COC(=O)C=C)COC(=O)C=C`, the Potency [1, 6] is reported as inconclusive: 31 µM [cytotoxic, full curve, poor fit] and inconclusive: 11 µM [inhibitor, single point], the Potency [3] is reported as active: 13.9 µM and active: 12.3 µM and the Potency [5] is reported as active: 61.3 µM and inconclusive: 77 µM [cytotoxic, single point].
